Data as given in patent US20220054610A1, “SLOW-CYCLING CELL-RNA BASED NANOPARTICLE VACCINE TO TREAT CANCER” (University of Florida Research Foundation, Inc., priority 2018, published 2022).
At least one compound was matched to its structure with a doubt left.

System: hGBM L0 and L2 SCC or FCC orthotopic xenografts
Assay: In vivo TMZ treatment of orthotopically grafted animals, survival
Set-up: species or system NOD-SCID mice
Conditions: TMZ 20 mg/kg

With `Cn1nnc2c(C(N)=O)ncn2c1=O` [TMZ, temozolomide] the survival (L0 FCC-grafted animals) was “lengthened the survival”, the survival (L0 SCC-grafted animals) was “significantly smaller effects” and the survival (L2 SCC-implanted group) was “did not improve the survival”. The median survival (animals implanted with L2 FCCs) was “prolonged the median survival”.
